Data as given in paper PMC8776970.
Results are given in words; binding and its absence hold for the method and conditions named. For part of these data: Binding seen in cells or lysates may run through a third protein. Some entries that bind do so weakly or less than the wild type. Blank lines part the entries; values can stand above or below the molecule they belong to.

Amino acid sequences for entries named in this document (tags omitted).
UniProt P06493: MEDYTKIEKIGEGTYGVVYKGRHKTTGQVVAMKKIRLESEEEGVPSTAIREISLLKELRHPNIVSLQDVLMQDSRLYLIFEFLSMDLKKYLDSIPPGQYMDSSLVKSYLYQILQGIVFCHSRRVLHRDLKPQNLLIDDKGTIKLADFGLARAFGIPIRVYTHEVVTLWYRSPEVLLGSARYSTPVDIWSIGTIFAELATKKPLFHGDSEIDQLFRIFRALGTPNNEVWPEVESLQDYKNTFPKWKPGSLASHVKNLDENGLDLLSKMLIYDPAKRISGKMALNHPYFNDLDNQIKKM
UniProt Q14676: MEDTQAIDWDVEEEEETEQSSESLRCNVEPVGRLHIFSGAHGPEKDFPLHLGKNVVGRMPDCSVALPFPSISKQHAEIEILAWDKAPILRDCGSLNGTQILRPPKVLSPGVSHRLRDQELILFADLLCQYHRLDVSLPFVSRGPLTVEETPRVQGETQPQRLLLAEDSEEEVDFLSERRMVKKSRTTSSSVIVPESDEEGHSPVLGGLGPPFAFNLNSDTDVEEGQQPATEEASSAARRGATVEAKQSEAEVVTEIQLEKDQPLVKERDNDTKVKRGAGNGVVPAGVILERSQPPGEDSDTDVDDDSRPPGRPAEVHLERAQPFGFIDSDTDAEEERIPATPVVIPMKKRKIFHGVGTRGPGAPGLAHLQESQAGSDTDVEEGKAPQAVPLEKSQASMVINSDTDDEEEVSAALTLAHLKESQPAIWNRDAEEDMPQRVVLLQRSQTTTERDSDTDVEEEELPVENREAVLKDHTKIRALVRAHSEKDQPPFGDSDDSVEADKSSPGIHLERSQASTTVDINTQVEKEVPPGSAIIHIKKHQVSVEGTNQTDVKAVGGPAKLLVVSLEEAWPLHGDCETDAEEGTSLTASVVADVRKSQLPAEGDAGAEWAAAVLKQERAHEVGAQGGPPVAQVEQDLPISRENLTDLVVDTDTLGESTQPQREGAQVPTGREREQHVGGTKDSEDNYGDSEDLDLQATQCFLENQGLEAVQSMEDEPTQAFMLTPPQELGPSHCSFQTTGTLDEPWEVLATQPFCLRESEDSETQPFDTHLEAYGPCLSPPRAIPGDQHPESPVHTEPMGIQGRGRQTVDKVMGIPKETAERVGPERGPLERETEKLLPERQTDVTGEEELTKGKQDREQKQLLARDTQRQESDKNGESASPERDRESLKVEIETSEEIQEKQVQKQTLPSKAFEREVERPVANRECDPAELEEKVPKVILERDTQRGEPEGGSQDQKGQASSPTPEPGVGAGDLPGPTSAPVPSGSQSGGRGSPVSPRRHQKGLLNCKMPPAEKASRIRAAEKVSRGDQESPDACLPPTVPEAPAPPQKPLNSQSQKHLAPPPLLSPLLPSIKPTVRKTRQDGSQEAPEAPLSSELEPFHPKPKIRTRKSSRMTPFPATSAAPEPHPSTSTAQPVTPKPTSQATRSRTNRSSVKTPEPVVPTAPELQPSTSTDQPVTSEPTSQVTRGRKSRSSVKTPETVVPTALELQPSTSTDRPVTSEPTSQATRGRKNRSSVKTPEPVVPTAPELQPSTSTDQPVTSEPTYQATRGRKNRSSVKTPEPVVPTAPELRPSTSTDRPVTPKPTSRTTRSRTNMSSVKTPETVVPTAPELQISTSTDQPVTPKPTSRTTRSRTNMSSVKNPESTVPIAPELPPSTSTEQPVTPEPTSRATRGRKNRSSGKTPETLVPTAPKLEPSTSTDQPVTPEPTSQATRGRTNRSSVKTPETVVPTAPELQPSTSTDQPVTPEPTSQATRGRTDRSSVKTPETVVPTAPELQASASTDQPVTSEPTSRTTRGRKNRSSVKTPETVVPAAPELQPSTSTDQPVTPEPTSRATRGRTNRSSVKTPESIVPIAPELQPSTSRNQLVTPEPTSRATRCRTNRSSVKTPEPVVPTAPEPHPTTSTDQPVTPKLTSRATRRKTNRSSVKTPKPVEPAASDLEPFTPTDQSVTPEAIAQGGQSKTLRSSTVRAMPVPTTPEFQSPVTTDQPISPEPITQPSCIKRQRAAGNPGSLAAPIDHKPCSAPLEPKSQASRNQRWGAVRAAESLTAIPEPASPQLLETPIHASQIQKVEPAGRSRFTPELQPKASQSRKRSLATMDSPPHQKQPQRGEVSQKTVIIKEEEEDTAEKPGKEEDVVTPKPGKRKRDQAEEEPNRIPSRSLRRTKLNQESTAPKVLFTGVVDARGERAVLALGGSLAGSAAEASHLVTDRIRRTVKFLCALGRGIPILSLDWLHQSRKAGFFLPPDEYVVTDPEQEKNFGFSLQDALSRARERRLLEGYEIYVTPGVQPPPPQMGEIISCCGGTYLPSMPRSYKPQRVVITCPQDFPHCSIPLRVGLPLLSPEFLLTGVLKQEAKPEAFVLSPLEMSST
UniProt Q8N884: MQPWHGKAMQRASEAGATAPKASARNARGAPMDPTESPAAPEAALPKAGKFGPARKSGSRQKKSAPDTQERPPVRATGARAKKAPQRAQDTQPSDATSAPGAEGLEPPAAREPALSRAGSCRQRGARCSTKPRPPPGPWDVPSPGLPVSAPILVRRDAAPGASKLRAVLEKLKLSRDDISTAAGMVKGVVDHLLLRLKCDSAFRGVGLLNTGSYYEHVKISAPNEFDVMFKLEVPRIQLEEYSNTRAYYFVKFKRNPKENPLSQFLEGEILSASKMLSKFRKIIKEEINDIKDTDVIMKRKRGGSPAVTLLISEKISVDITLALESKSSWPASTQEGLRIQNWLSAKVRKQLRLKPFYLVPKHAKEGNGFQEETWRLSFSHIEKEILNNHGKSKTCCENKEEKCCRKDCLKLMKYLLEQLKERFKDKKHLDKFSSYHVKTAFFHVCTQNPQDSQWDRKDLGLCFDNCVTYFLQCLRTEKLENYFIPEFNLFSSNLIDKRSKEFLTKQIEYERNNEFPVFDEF

Key:
[1] = target: mCherry-CDK1 (UniProt P06493); experiment: pull-down; purified GFP-cGAS incubated with purified mCherry-CDK1 and mCherry-beads in RIPA buffer (1% NP-40, 0.25% sodium deoxycholate, 50 mmol/L Tris-HCl pH 7.4, 150 mmol/L NaCl) overnight at 4 °C; immunoblot with anti-GFP and anti-mCherry; both purified
[2] = target: exogenously expressed CDK1 (UniProt P06493); experiment: co-IP; exogenously expressed CDK1 precipitated from mitotic U2OS cells (Fig. S5A)
[3] = target: CDK1, endogenous (human (endogenous in U2OS, HeLa, 293T)) (UniProt P06493); experiment: co-IP; HeLa cell lysate (Fig. S5B); RIPA buffer, primary antibody and Protein A/G beads
[4] = target: CDK1, endogenous (human (endogenous in U2OS, HeLa, 293T)) (UniProt P06493); experiment: co-IP; endogenous CDK1 precipitated with CDK1 antibody and Protein A/G beads from mitotic U2OS lysate; RIPA buffer; IgG as control
[5] = target: GFP-MDC1 (UniProt Q14676); experiment: co-IP; GFP-MDC1 precipitated with GFP-beads from mitotic cGAS-deficient (gcGAS-1) U2OS cells cultured with SCR7; RIPA buffer; RNF8 by immunoblot
[6] = target: GFP-MDC1 (UniProt Q14676); experiment: condition: only mitotic control (Scr) U2OS cells in which cGAS is not depleted; co-IP; GFP-MDC1 precipitated with GFP-beads from mitotic control (Scr) U2OS cells cultured with SCR7; RIPA buffer; RNF8 by immunoblot

binding [1]: binds
Molecule: GFP-cGAS protein (purified) (from UniProt Q8N884 1-522)

binding [2]: binds | binding [3]: binds | binding [4]: binds
Molecule: cyclic GMP-AMP synthase (cGAS), endogenous (from UniProt Q8N884 1-522)

binding [5]: binds | binding [6]: no binding
B1: RNF8 (protein, UniProt O76064 1-485)
chain: MGEPGFFVTGDRAGGRSWCLRRVGMSAGWLLLEDGCEVTVGRGFGVTYQLVSKICPLMISRNHCVLKQNPEGQWTIMDNKSLNGVWLNRARLEPLRVYSIHQGDYIQLGVPLENKENAEYEYEVTEEDWETIYPCLSPKNDQMIEKNKELRTKRKFSLDELAGPGAEGPSNLKSKINKVSCESGQPVKSQGKGEVASTPSDNLDPKLTALEPSKTTGAPIYPGFPKVTEVHHEQKASNSSASQRSLQMFKVTMSRILRLKIQMQEKHEAVMNVKKQTQKGNSKKVVQMEQELQDLQSQLCAEQAQQQARVEQLEKTFQEEEQHLQGLEIAQGEKDLKQQLAQALQEHWALMEELNRSKKDFEAIIQAKNKELEQTKEEKEKMQAQKEEVLSHMNDVLENELQCIICSEYFIEAVTLNCAHSFCSYCINEWMKRKIECPICRKDIKSKTYSLVLDNCINKMVNNLSSEVKERRIVLIRERKAKRLF
